These are yes or no findings as the source states them, for the method shown. Binding seen in cells or lysates may run through a third protein. Some binding calls cover weakened binding; strength is not graded here. Tags and fused reporters may be left off the sequences shown.
Molecular target: TRIM21–MYC (tripartite motif–containing 21, MYC-tagged) (UniProt P19474)
Assay: co-IP; NPC cells (HONE1) with ectopic expression of SERPINB5, TRIM21 or GMPS, MG132 10 μM for 24 h; lysate incubated with tag antibody (anti-FLAG, anti-MYC or anti-HA) at 4 °C overnight, protein A/G agarose, western blot; cells with or without X-ray radiation (6 Gy); some panels in TRIM21 LOF or SERPINB5 LOF (CRISPR knockout) cells

Amino acid sequences for entries named in this document (tags omitted).
UniProt P19474: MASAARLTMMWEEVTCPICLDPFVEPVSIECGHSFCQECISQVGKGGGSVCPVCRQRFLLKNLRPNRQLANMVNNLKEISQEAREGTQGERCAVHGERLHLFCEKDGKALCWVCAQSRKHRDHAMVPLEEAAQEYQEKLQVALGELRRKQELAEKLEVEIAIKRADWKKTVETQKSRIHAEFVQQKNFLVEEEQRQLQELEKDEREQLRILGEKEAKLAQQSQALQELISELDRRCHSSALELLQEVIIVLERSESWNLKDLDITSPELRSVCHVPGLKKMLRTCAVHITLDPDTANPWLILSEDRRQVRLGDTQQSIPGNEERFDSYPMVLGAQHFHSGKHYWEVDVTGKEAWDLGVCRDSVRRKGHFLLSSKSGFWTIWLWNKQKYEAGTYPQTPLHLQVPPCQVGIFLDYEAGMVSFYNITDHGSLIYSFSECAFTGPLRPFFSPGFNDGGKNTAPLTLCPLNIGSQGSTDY

B1: SERPINB5–HA (serpin family B member 5, HA-tagged) (protein, UniProt P36952 1-375)
chain: MDALQLANSAFAVDLFKQLCEKEPLGNVLFSPICLSTSLSLAQVGAKGDTANEIGQVLHFENVKDVPFGFQTVTSDVNKLSSFYSLKLIKRLYVDKSLNLSTEFISSTKRPYAKELETVDFKDKLEETKGQINNSIKDLTDGHFENILADNSVNDQTKILVVNAAYFVGKWMKKFSESETKECPFRVNKTDTKPVQMMNMEATFCMGNIDSINCKIIELPFQNKHLSMFILLPKDVEDESTGLEKIEKQLNSESLSQWTNPSTMANAKVKLSIPKFKVEKMIDPKACLENLGLKHIFSEDTSDFSGMSETKGVALSNVIHKVCLEITEDGGDSIEVPGARILQHKDELNADHPFIYIIRHNKTRNIIFFGKFCSP
Question: With B1 as the binder, how does the binding read?
Answer: Its binding is “binds”.

From publication PMC6995195
